Measured values from patent publication US20040157280A1, “Antibody mediated ozone generation” (priority 2001, published 2004).

Test: Oxidation of indigo carmine 1 and ^18O incorporation into 2 by different reactive oxygen species
Format: physicochemical

O=[O+][O-] [Clone O3, ozone]
^18O incorporation into 2 (H2^18O (>95%) PB): Yes
Reaction to form 2 (oxidant added to indigo carmine 1 (1 mM), PB pH 7.4): yes
